{"source": "paper doi:10.1101/2025.05.12.653458", "key": {"[1]": {"target": "T1, RFP-AtVPS52 (Arabidopsis) (UniProt Q94KD3)", "T1 sequence": "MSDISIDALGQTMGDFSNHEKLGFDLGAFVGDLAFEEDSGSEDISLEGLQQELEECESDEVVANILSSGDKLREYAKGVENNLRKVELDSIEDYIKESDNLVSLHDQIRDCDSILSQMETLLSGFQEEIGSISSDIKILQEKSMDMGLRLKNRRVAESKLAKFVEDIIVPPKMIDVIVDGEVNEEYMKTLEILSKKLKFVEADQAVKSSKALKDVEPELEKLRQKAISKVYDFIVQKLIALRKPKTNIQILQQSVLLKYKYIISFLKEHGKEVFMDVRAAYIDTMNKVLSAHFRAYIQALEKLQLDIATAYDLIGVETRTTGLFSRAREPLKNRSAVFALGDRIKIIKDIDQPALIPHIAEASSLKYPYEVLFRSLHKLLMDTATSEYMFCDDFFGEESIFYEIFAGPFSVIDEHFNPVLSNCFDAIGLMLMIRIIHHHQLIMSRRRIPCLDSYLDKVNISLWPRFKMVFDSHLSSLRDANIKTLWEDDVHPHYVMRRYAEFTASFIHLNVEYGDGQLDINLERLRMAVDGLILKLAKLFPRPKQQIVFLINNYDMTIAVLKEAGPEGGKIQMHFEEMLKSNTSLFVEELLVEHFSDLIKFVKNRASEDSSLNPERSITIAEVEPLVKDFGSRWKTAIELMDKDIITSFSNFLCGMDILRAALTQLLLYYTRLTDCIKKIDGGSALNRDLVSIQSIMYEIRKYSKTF", "test": "co-IP"}, "[2]": {"target": "T2, His-AtVPS52 1-170 (Arabidopsis) (UniProt Q94KD3)", "T2 sequence": "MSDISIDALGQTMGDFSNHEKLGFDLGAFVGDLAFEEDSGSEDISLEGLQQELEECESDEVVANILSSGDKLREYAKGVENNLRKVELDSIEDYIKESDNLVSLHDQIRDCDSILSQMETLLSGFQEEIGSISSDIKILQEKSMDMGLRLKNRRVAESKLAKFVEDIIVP", "test": "pull-down"}}, "note": "These are yes or no findings as the source states them, for the method shown. Binding seen in cells or lysates may run through a third protein. A result given as binding can be weak or reduced; the word gives no strength. For some of these results: Sequences can lack the tags named with a protein."}
{"substance": "GFP-Mp1 (Myzus persicae)", "values": [{"measurement": "binding", "setting": "[1]", "result": "binds"}]}
{"substance": "GFP-Mp58 (Myzus persicae)", "values": [{"measurement": "binding", "setting": "[1]", "result": "binds"}]}
{"substance": "GST-Mp1 (Myzus persicae)", "values": [{"measurement": "binding", "setting": "[2]", "result": "binds"}]}
{"substance": "myc-Mp1 (Myzus persicae)", "values": [{"measurement": "binding", "setting": "[1]", "result": "binds"}]}
